# The list does not hold the whole screen: it is rich in T/C values a quarter to a half above the control, in often repeated tests (any T/C) and in doses without a T/C. Other doses and runs of a compound stand elsewhere. T/C is the treated group as % of the vehicle group. Some entries give survivors of the animals treated and no T/C: the source holds a T/C of zero for them, seemingly a mark for toxic or unscored doses. Some survivor counts are full or nearly so, which does not show that the dose was tolerated: survival well below the control is almost never listed, so the zero probably covers shortened survival too. Survivors were counted at the toxicity check, usually on the fifth day, unless a day is given; later deaths do not show. Schedules are NCI's codes, read here as Q, the interval in days (D) or hours (H), X, the number of doses. Where survival is the endpoint, the PubChem record calls one and a half times the control and up active, and a quarter to a half above the control has no call in these data; cut-offs in other NCI protocols can differ. Some entries were tested several times; the values are given in rising order. Some T/C values carry the count of animals alive at the toxicity check (mostly the fifth day); where none is given, no animal had died by that day.
# Tested on: BDF1 mice, B16 melanoma ip, median survival T/C
# Assay: NCI In Vivo Anticancer Drug Screen. Data for tumor model B16 Melanoma (intraperitoneal) in B6D2F1 (BDF1) mice
# Settings: T/C endpoint: median survival time, higher T/C = longer survival
# Description: The antitumor activity of compounds was measured in mice bearing transplantable tumors. Survival or tumor size were measured and the results are expressed as the measurement made in the treated group (T) divided by the measurement made in the vehicle treated control group (C). The tumor model used in this assay is B16 Melanoma (intraperitoneal) in B6D2F1 (BDF1) mice
# [1] = dose: 25.0 mg/kg/injection, schedule: Q01DX009 (ip), vehicle: saline with Tween-80
# [2] = dose: 100.0 mg/kg/injection, schedule: Q01DX009 (ip), vehicle: saline with Tween-80
# [3] = dose: 12.5 mg/kg/injection, schedule: Q01DX009 (ip), vehicle: Klucel (hydroxypropylcellulose) (HPC)
# [4] = dose: 25.0 mg/kg/injection, schedule: Q01DX009 (ip), vehicle: Klucel (hydroxypropylcellulose) (HPC)
# [5] = dose: 50.0 mg/kg/injection, schedule: Q01DX009 (ip), vehicle: saline
# [6] = dose: 200.0 mg/kg/injection, schedule: Q01DX009 (ip), vehicle: saline
# [7] = dose: 400.0 mg/kg/injection, schedule: Q01DX009 (ip), vehicle: saline
# [8] = dose: 400.0 mg/kg/injection, schedule: Q01DX009 (ip), vehicle: Klucel (hydroxypropylcellulose) (HPC)
# [9] = dose: 400.0 mg/kg/injection, schedule: Q01DX009 (ip), vehicle: saline with Tween-80
# [10] = dose: 100.0 mg/kg/injection, schedule: Q01DX009 (ip), vehicle: Klucel (hydroxypropylcellulose) (HPC)
# [11] = dose: 200.0 mg/kg/injection, schedule: Q01DX009 (ip), vehicle: Klucel (hydroxypropylcellulose) (HPC)
# [12] = dose: 50.0 mg/kg/injection, schedule: Q01DX009 (ip), vehicle: saline with Tween-80
# [13] = dose: 5.0 mg/kg/injection, schedule: Q01DX009 (ip), vehicle: saline
# [14] = dose: 300.0 mg/kg/injection, schedule: Q01DX009 (ip), vehicle: saline
smiles,measurement,setting,value
O=C(Nc1ccc(C(=O)O)cc1)Nc1nccs1,T/C,"dose: 50.0 mg/kg/injection, schedule: Q01DX009 (ip), vehicle: distilled water + Tween-80",125 % of control
same,survivor count,"dose: 400.0 mg/kg/injection, schedule: Q01DX009 (ip), vehicle: distilled water + Tween-80",8 of 10
Cc1ccc2ccccc2c1OC(C)C(=O)O (configuration not stated),survivor count,"dose: 25.0 mg/kg/injection, schedule: Q04DX003 (ip), vehicle: alcohol",10 of 10
same,survivor count,"dose: 50.0 mg/kg/injection, schedule: Q04DX003 (ip), vehicle: alcohol",10 of 10
same,survivor count,"dose: 100.0 mg/kg/injection, schedule: Q04DX003 (ip), vehicle: alcohol",10 of 10
same,survivor count,"dose: 200.0 mg/kg/injection, schedule: Q01DX009 (ip), vehicle: alcohol",8 of 10
COc1ccccc1N=NC(C#N)C(N)=O (configuration not stated),survivor count,[1],10 of 10
same,survivor count,[2],10 of 10
COC(=O)[C@H]1[C@H]2C[C@@H]3c4[nH]c5cc(OC)ccc5c4CCN3C[C@H]2C[C@@H](OC(=O)/C=C/c2cc(OC)c(OC)c(OC)c2)[C@@H]1OC,survivor count,"dose: 0.09 mg/kg/injection, schedule: Q01DX009 (ip), vehicle: Klucel (hydroxypropylcellulose) (HPC)",10 of 10
same,survivor count,"dose: 0.19 mg/kg/injection, schedule: Q01DX009 (ip), vehicle: Klucel (hydroxypropylcellulose) (HPC)",10 of 10
same,survivor count,"dose: 3.12 mg/kg/injection, schedule: Q01DX009 (ip), vehicle: Klucel (hydroxypropylcellulose) (HPC)",10 of 10
same,survivor count,"dose: 6.25 mg/kg/injection, schedule: Q01DX009 (ip), vehicle: Klucel (hydroxypropylcellulose) (HPC)",10 of 10
same,survivor count,[3],10 of 10
same,survivor count,[4],8 of 10
same,survivor count,"dose: 50.0 mg/kg/injection, schedule: Q01DX009 (ip), vehicle: Klucel (hydroxypropylcellulose) (HPC)",7 of 10
ClCCN(CC#CCCCC#CCN(CCCl)CCCl)CCCl,T/C,"dose: 6.25 mg/kg/injection, schedule: Q01DX009 (ip), vehicle: saline",139 % of control
same,survivor count,[5],2 of 10
Oc1ccc2ccc3[nH]cnc3c2c1,survivor count,"dose: 200.0 mg/kg/injection, schedule: Q04DX003 (ip), vehicle: Klucel (hydroxypropylcellulose) (HPC)",10 of 10
CCC(=O)[O][Bi]([c]1ccccc1)[c]1ccccc1,survivor count,"dose: 48.0 mg/kg/injection, schedule: Q01DX009 (ip), vehicle: Klucel (hydroxypropylcellulose) (HPC)",2 of 10
COc1cc(OC)c(NC(=O)NC(C)C)cc1Cl,survivor count,"dose: 100.0 mg/kg/injection, schedule: Q01DX009 (ip), vehicle: saline + alcohol",9 of 10
same,survivor count,"dose: 200.0 mg/kg/injection, schedule: Q01DX009 (ip), vehicle: saline + alcohol",10 of 10
same,survivor count,"dose: 400.0 mg/kg/injection, schedule: Q01DX009 (ip), vehicle: saline + alcohol",10 of 10
CC(C)C[C@H](O)C(=O)O,survivor count,"dose: 100.0 mg/kg/injection, schedule: Q01DX009 (ip), vehicle: saline",6 of 6
same,survivor count,[6],6 of 6
same,survivor count,[7],1 of 6
Cc1ccc(NC(=O)Nc2ccc(C)c(NC(=O)Nc3ccc(C)cc3C)c2)c(C)c1,survivor count,[8],10 of 10
O=C(Nc1ccc(Cl)cc1)Nc1ccccc1F,survivor count,[9],10 of 10
CCCCc1c(OC)cc(O)c2c1C(=O)c1[nH]c(C(=O)O)c(O)c(=O)c1C2=O,survivor count,"dose: 30.0 mg/kg/injection, schedule: Q01DX009 (ip), vehicle: Klucel (hydroxypropylcellulose) (HPC)",10 of 10
C[C@@H]1C[C@](O)([C@@H](C)Cl)C(=O)O[C@@H]2CCN3CC=C(COC(=O)[C@]1(C)O)[C@H]23,survivor count,"dose: 44.0 mg/kg/injection, schedule: Q01DX009 (ip), vehicle: saline",6 of 6
Oc1ccccc1C(Nc1nc2ccccc2s1)c1ccc2cccnc2c1O (configuration not stated),T/C,[10],126 % of control
same,T/C,[11],129 [9 of 10 alive] and 141 % of control
same,survivor count,"dose: 300.0 mg/kg/injection, schedule: Q01DX009 (ip), vehicle: Klucel (hydroxypropylcellulose) (HPC)",10 of 10
same,T/C,[8],131 and 147 % of control
O=C1NC2C(NC(=O)N2Cl)N1Cl (configuration not stated),survivor count,[12],10 of 10
same,survivor count,[5],9 of 10
same,survivor count,"dose: 50.0 mg/kg/injection, schedule: Q04DX003 (ip), vehicle: saline with Tween-80",10 of 10
same,survivor count,[2],4 of 10
same,survivor count,"dose: 100.0 mg/kg/injection, schedule: Q04DX003 (ip), vehicle: saline with Tween-80",9 of 10
same,survivor count,"dose: 200.0 mg/kg/injection, schedule: Q04DX003 (ip), vehicle: saline with Tween-80",2 of 10
COc1ccccc1NC(=O)Nc1cccc(Cl)c1,survivor count,[2],10 of 10
same,survivor count,"dose: 200.0 mg/kg/injection, schedule: Q01DX009 (ip), vehicle: saline with Tween-80",10 of 10
same,survivor count,[9],10 of 10
C[C@@H]1O[C@@H](O[C@H]2CC[C@]3(C=O)[C@H]4CC[C@]5(C)[C@@H](c6ccc(=O)oc6)CC[C@]5(O)[C@@H]4CC[C@]3(O)C2)[C@H](O)[C@H](O)[C@H]1O[C@@H]1O[C@H](CO)[C@@H](O)[C@H](O)[C@H]1O,survivor count,[13],5 of 6
CN(C)C(C#N)C(=O)c1ccccc1 (configuration not stated),survivor count,[11],0 of 10
N#CCCCc1ccccc1,survivor count,[11],9 of 10
[N-]=C(CC(=O)c1ccccc1)c1ccccc1.[N-]=C(CC(=O)c1ccccc1)c1ccccc1.[Ni+2],survivor count,"dose: 25.0 mg/kg/injection, schedule: Q04DX003 (ip), vehicle: Klucel (hydroxypropylcellulose) (HPC)",10 of 10
same,survivor count,"dose: 50.0 mg/kg/injection, schedule: Q04DX003 (ip), vehicle: Klucel (hydroxypropylcellulose) (HPC)",10 of 10
same,survivor count,"dose: 100.0 mg/kg/injection, schedule: Q04DX003 (ip), vehicle: Klucel (hydroxypropylcellulose) (HPC)",10 of 10
CCCCN(CCCC)CCCC#N,survivor count,[14],6 of 10
CC(C)c1ccc(NC(=O)NC2CCCCC2)cc1,survivor count,[10],5 of 6
same,survivor count,[11],6 of 6
same,survivor count,[8],3 of 6
CCC[CH2][Hg][Cl],survivor count,"dose: 3.0 mg/kg/injection, schedule: Q01DX009 (ip), vehicle: saline with Tween-80",10 of 10
same,survivor count,"dose: 6.25 mg/kg/injection, schedule: Q01DX009 (ip), vehicle: saline with Tween-80",10 of 10
same,survivor count,"dose: 12.5 mg/kg/injection, schedule: Q01DX009 (ip), vehicle: saline with Tween-80",10 of 10
same,survivor count,[1],5 of 10
same,survivor count,[12],0 of 10
CCC(C)OC(N)=O (configuration not stated),T/C,[6],129 % of control
same,T/C,[7],126 % of control
Clc1cc(Cl)c(C[N+]23CN4CN(CN(C4)C2)C3)cc1Cl,survivor count,[7],0 of 10
CCOC(=O)N(NC(=O)c1ccccc1)C(C)=O,survivor count,"dose: 100.0 mg/kg/injection, schedule: Q01DX009 (ip), vehicle: other",4 of 10
Cc1cc(=O)n2c3c(c4c(cc13)c(CN(C)C)cc(=O)n4C)OC2,survivor count,[2],4 of 10
Nc1ncnc2c1ncn2C1OC(CO)C(O)C1O (configuration not stated),T/C,[14],131 % of control
COC(=O)C(CSCc1ccccc1)NC(=O)OCc1ccccc1 (configuration not stated),survivor count,[3],10 of 10
same,survivor count,[4],9 of 9
same,survivor count,[10],10 of 10
same,survivor count,[11],10 of 10
same,survivor count,[8],10 of 10
CNC1C(OC2C(OC3C(O)C(O)C(N=C(N)N)C(O)C3N=C(N)N)OC(C)C2(O)C=O)OC(CO)C(O)C1O (configuration not stated),survivor count,"dose: 400.0 mg/kg/injection, schedule: Q01DX009 (ip), vehicle: water",6 of 10
Cc1cc2c3ccc(C)[n+](C)c3ccc2n1C,survivor count,"dose: 0.6 mg/kg/injection, schedule: Q01DX009 (ip), vehicle: saline",0 of 6
same,survivor count,[13],0 of 6
same,survivor count,"dose: 10.0 mg/kg/injection, schedule: Q01DX009 (ip), vehicle: saline",0 of 6
